Results are given in words; binding and its absence hold for the method and conditions named. In cells and extracts the contact can be indirect. Some results given as binding are weak or reduced against the parent protein; the word gives no strength.
Biological target: GST-RhoA (UniProt P61586)
Test: pull-down; GST-RhoA beads as bait; lysates of tumor tissues or of transfected COS-7 cells; bound (active) DAAM1 immunoblotted with anti-DAAM1 antibody; only the target purified

By UniProt entry, the sequences of proteins in these tests, tags left out.
UniProt P61586: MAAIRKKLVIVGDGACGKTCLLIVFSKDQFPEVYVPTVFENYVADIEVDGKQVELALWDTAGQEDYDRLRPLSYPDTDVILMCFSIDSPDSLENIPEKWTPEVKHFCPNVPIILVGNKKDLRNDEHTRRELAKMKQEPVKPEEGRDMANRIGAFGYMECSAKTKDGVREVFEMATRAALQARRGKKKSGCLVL
UniProt Q9Y4D1: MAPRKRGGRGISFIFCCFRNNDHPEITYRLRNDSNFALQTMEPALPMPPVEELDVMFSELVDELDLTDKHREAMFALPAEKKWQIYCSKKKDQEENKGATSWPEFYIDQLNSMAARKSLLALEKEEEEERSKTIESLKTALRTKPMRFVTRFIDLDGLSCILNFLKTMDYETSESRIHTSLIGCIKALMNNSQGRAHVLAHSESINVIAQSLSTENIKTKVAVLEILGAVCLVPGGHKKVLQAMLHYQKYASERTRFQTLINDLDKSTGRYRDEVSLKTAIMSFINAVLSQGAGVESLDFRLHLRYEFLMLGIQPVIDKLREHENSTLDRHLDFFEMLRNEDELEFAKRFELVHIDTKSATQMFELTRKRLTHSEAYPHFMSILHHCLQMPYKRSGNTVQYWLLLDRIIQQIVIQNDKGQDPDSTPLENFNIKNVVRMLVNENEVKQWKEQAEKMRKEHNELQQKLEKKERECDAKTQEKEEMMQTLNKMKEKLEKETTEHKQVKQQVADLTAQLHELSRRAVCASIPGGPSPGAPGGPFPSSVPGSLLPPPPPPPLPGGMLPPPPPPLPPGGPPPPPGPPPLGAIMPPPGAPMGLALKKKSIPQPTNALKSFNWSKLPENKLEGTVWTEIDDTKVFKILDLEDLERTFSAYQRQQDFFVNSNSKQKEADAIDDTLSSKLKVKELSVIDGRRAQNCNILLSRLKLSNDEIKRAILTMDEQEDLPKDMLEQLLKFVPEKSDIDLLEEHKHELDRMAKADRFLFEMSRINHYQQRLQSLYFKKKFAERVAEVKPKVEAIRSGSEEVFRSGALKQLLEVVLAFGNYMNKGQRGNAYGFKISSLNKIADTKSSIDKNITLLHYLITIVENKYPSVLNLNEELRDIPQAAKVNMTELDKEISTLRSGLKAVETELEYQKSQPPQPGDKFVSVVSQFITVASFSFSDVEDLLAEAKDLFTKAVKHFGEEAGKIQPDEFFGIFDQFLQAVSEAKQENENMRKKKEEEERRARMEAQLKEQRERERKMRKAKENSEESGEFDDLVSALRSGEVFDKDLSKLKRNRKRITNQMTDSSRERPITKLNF

With “Dishevelled-associated activator of morphogenesis 1 (DAAM1) (from UniProt Q9Y4D1 1-1078)” the binding was “binds”.

From paper PMC6417246
